Literature values in patent US20080153908A1, “Method of Treating Mucin Deficiency with an Active Pharmaceutical and Related Composition” (priority 2006, published 2008).
At least one compound was matched to its structure with a doubt left.

Tested on: rat colon cells
Details: isolated vascularly perfused rat colon; cited from earlier work

CCCC(=O)O [butyrate]
stimulation of mucin secretion of rat colon cells: can stimulate the mucin secretion
